The target in test [1] is T1, his-tagged human CDH6 extracellular region protein (hCDH6 ECD-his) (human) (UniProt P55285).
T1 sequence: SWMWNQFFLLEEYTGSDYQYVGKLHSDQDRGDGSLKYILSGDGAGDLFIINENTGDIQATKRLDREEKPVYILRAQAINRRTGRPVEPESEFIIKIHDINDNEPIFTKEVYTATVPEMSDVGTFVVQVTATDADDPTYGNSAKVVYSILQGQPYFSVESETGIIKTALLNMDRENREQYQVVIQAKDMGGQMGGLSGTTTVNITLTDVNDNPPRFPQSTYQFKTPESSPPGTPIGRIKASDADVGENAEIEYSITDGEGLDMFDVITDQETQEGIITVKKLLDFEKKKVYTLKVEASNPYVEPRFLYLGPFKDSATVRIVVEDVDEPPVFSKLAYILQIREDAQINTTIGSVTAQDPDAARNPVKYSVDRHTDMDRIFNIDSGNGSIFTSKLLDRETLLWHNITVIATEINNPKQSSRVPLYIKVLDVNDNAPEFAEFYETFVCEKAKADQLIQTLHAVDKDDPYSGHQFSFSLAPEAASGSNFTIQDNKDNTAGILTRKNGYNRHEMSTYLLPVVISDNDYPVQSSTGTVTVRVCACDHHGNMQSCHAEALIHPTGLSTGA
Put plainly: ELISA, antigen coated. In general terms: ELISA stands for enzyme-linked immunosorbent assay.

Test [2] concerns the target monkey CDH6 protein (cynoCDH6 ECD-his) (monkey (cyno)). Put plainly: ELISA, antigen coated.
Test [3] has as its target T1, his-tagged human CDH6 extracellular region protein (hCDH6 ECD-his) (human). The test can be described thus: SPR Biacore. (In general: SPR reads the build-up and loss of mass on a sensor chip optically.)

These are yes or no findings as the source states them, for the method shown. Some binding calls cover weakened binding; strength is not graded here. For part of these data: Where a sequence is shown, tags or fusion partners need not be part of it.

B1: CHI-CDH6-10 (antibody, human IgG1, kappa, V domains shown)
VH: QVQLQQPGAELVKPGTSVKMSCKASGYTFTSDWIAWVKQRPGQGLEWIGDIYPGSGRTHNNEKFNFKATLTVDTSSNTAYMQLSSLTSEDSAVYFCARPMLGRFDYWGQGTTLTVSS
VL: DIVLTQSPASLAVSLGQRATISCRASESVSIHGTHLMHWYQQKPGQPPKLLIYAASNLESGVPARFSGSGSETDFTLNIHPVEEEDAATYFCQQSFEDPFTFGSGTKLEIKR
For B1, the binding entry in test [1] and in test [2] was “binds” throughout.

B2: CHI-CDH6-2 (antibody, human IgG1, kappa, V domains shown)
VH: EVQLQQSGPELVKPGASVRISCKASGYTFTDYYMNWVKQSHGKSLEWIGDIDPNNANTTYNQKFKGKATLTVDKSSSTAYMELRSLTSEDSAVYSCASFGYDVEWFGYWGQGTLVTVSA
VL: QIVLTQSPALMSASPGEKVTMTCSASSSVSYMYWYQQKPRSSPKPWIYLTSNLASGVPARFSGSGSGTSYSLTISSMEAEDAATYYCQQWSSNPFTFGSGTKLEIKR
Regarding B2, the binding entry in test [1] and in test [2] was “binds” each time.

B3: CHI-CDH6-13 (antibody, human IgG1, kappa, V domains shown)
VH: DVQLQESGPGLVKPSQSLSLTCSVTGYSITKDSYWNWIRQFPGSKLEWMGFISYDGSRHYNPSLKNRISITRDTSKNQFFLQLNSVTTEDTATYYCARRDYADYWGQGTTLTVSS
VL: QIVLTQSPALMSAFPGEKVTMTCSATSSVSYIYWYQQKPRSSPKPWIYLTSNLASGVPARFSGSGSGTSYSLTINSLEAEDAATYYCQQWSSIPYTFGGGTKLEIKR
As for B3, the binding entry in test [1] and in test [2] was “binds” each time.

B4: hCDH6-6-H1L1 (antibody, human IgG1, kappa, V domains shown)
VH: EVQLVQSGAEVKKPGASVKVSCKASGYTFTDYYMAWVRQAPGQGLEWMGYIFPNSGGTDYSQKFKGRVTMTVDKSTSTVYMELSSLRSEDTAVYYCARELGADYGDYYAMDHWGQGTTVTVSS
VL: DIQMTQSPSSLSASVGDRVTITCRASENIDSYLAWYQQKPGKSPKLLLYSATLLADGVPSRFSGSGSGTDYTLTISSLQPEDFATYYCQHYYRTPPTFGQGTKLEIKR
As for B4, the binding result in test [3] and in test [1] was “binds” throughout.

B5: hCDH6-6-H1L2 (antibody, human IgG1, kappa, V domains shown)
VH: EVQLVQSGAEVKKPGASVKVSCKASGYTFTDYYMAWVRQAPGQGLEWMGYIFPNSGGTDYSQKFKGRVTMTVDKSTSTVYMELSSLRSEDTAVYYCARELGADYGDYYAMDHWGQGTTVTVSS
VL: DIQMTQSPSSLSASVGDRVTITCRASENIDSYLAWYQQKPGKSPKLLVYSATLLADGVPSRFSGSGSGTDYTLTISSLQPEDFATYYCQHYYRTPPTFGQGTKLEIKR
B5: the binding result in test [3] and in test [1] was “binds” each time.

B6: hCDH6-6-H2L2 (antibody, human IgG1, kappa, V domains shown)
VH: EVQLVQSGAEVKKPGASVKVSCKASGYTFTDYYMAWVRQAPGQGLEWMGYIFPNSGGTDYSQKFKGRVTLTVDKSTSTVYMELSSLRSEDTAVYYCARELGADYGDYYAMDHWGQGTTVTVSS
VL: DIQMTQSPSSLSASVGDRVTITCRASENIDSYLAWYQQKPGKSPKLLVYSATLLADGVPSRFSGSGSGTDYTLTISSLQPEDFATYYCQHYYRTPPTFGQGTKLEIKR
B6: the binding result in test [3] and in test [1] was “binds” in each case.

B7: hCDH6-6-H2L1 (antibody, human IgG1, kappa, V domains shown)
VH: EVQLVQSGAEVKKPGASVKVSCKASGYTFTDYYMAWVRQAPGQGLEWMGYIFPNSGGTDYSQKFKGRVTLTVDKSTSTVYMELSSLRSEDTAVYYCARELGADYGDYYAMDHWGQGTTVTVSS
VL: DIQMTQSPSSLSASVGDRVTITCRASENIDSYLAWYQQKPGKSPKLLLYSATLLADGVPSRFSGSGSGTDYTLTISSLQPEDFATYYCQHYYRTPPTFGQGTKLEIKR
For B7, the binding entry in test [3] and in test [1] was “binds” in each case.

B8: CHI-CDH6-9 (antibody, human IgG1, kappa, V domains shown)
VH: QVQLQQPGAELVKPGASVKLSCKASGYTFTGYWMHWVRQRPGQGLEWIGEINPNNGGTNCNEQFKNKATLTVDKSSSTAYMQLSSLTSEDSAVFYCTISFGNYLFFDVWGAGTTVTVSS
VL: DIQMTQSPASLAASVGETITITCQASENIYFSLAWYQQKQGKSPQLLIYNANTLEDGVPSRFVGSGSGTQYSMKINSIQPEDTATYFCDQTYDFPWTFGGGTKLEIKR
With B8, the binding entry in test [1] and in test [2] was “binds” each time.

B9: CHI-CDH6-11 (antibody, human IgG1, kappa, V domains shown)
VH: QIQLQQSGPELVKPGASVRISCKASGYTFTDYYITWVKLRPGQGLEWIGWIYPGSVNIKYNEKFKGKATLTVDTSSSTAYMQLNSLTSEDSAVYFCARGGYSWFPYWGQGTLVTVSA
VL: NIVMTQSPKSMSMSVGERVTLSCKASENVHTYVSWYQQKPEQSPKLLFYGASTRNTGVPDRFTGSGSATDFTLTISSVQAEDLADYYCGQSYSYPYTFGSGTKLEIKR
B9: the binding entry in test [1] and in test [2] was “binds” each time.

B10: CHI-CDH6-6 (antibody, human IgG1, kappa, V domains shown)
VH: EVQLQQSGPELVKPGDSVKMSCKASGYTFTDYYMAWVRQSHRKSLEWIGYIFPNSGGTDYSQKFKGKATLTVDKSSSTVYMELHSLTSEDSAVYYCARELGADYGDYYAMDHWGQGTSVSVSS
VL: DIQMTQSPASLSASVGETVTITCRASENIDSYLAWYQQKQGKSPQLLVYSATLLADGVPSRFSGSGSGTQYSLKINSLKSEDVARYYCQHYYRTPPTFGSGTKLEIKR
B10: the binding entry in test [1] and in test [2] was “binds” throughout.

B11: CHI-CDH6-8 (antibody, human IgG1, kappa, V domains shown)
VH: EVQLQQSGPELVKPGDSVKMSCKASGYTFTDYYMAWIKQNHGKSLEWIGYIYPNNGGTDYNQKFRGKATLTVDKSSSAAYMELHSLTSEDSAVYYCAREIGTLYGDYYAMDYWGQGTSVTVSS
VL: DIQMTQSPASLSASVGETVTITCRASENIDSYLAWYQQKQGKSPQLLVYTATLLADGVPSRFSGSGSGTQYSLKINSLQSEDVARYYCQHYYSTPPTFGSGTKLEIKR
For B11, the binding result in test [1] and in test [2] was “binds” throughout.

B12: hCDH6-1-H1L1 (antibody, human IgG1, kappa, V domains shown)
VH: EVQLVQSGAEVKKPGSSVKVSCKASGYTFSNYWMHWVRQAPGQGLEWMGDIDPSHSETHYTQKFKDRVTITVDKSTSTAYMELSSLRSEDTAVYYCARGDLGRFDYWGQGTTVTVSS
VL: DIVMTQSPDSLAVSLGERATINCRASESVSIHGTHLMHWYQQKPGQPPKLLIYAASNLESGVPDRFSGSGSETDFTLTISSLQAEDVAVYYCQQSFEDPWTFGGGTKVEIKR
For the molecule B12, the binding entry in test [3] and in test [1] was “binds” in each case.

B13: hCDH6-1-H1L2 (antibody, human IgG1, kappa, V domains shown)
VH: EVQLVQSGAEVKKPGSSVKVSCKASGYTFSNYWMHWVRQAPGQGLEWMGDIDPSHSETHYTQKFKDRVTITVDKSTSTAYMELSSLRSEDTAVYYCARGDLGRFDYWGQGTTVTVSS
VL: DIVMTQSPDSLAVSLGERATINCRASESVSIHGTHLMHWYQQKSGQPPKLLIYAASNLESGVPDRFSGSGSETDFTLTISSLQAEDVAVYYCQQSFEDPWTFGGGTKVEIKR
Consider B13, for which the binding result in test [3] and in test [1] was “binds” throughout.

B14: hCDH6-1-H1L3 (antibody, human IgG1, kappa, V domains shown)
VH: EVQLVQSGAEVKKPGSSVKVSCKASGYTFSNYWMHWVRQAPGQGLEWMGDIDPSHSETHYTQKFKDRVTITVDKSTSTAYMELSSLRSEDTAVYYCARGDLGRFDYWGQGTTVTVSS
VL: DIQMTQSPSSLSASVGDRVTITCRASESVSIHGTHLMHWYQQKPGKPPKLLIYAASNLESGVPSRFSGSGSETDFTFTISSLQPEDIATYYCQQSFEDPWTFGGGTKVEIKR
Take B14: the binding result in test [3] and in test [1] was “binds” in each case.

B15: hCDH6-1-H2L3 (antibody, human IgG1, kappa, V domains shown)
VH: EVQLVQSGAEVKKPGSSVKVSCKASGYTFTNYWMHWVRQAPGQGLEWMGDIDPSHSETHYTQKFKDRVTITVDKSTSTAYMELSSLRSEDTAVYYCARGDLGRFDYWGQGTTVTVSS
VL: DIQMTQSPSSLSASVGDRVTITCRASESVSIHGTHLMHWYQQKPGKPPKLLIYAASNLESGVPSRFSGSGSETDFTFTISSLQPEDIATYYCQQSFEDPWTFGGGTKVEIKR
Turning to B15, the binding entry in test [3] and in test [1] was “binds” throughout.

Source of the values: EP4663661A1 (Hainan Simcere Zaiming Pharmaceutical Co., Ltd., dated 2025).
